This is an account of results in publication PMC11560026.

Amino acid sequences for entries named in this document (tags omitted).
UniProt Q96B97: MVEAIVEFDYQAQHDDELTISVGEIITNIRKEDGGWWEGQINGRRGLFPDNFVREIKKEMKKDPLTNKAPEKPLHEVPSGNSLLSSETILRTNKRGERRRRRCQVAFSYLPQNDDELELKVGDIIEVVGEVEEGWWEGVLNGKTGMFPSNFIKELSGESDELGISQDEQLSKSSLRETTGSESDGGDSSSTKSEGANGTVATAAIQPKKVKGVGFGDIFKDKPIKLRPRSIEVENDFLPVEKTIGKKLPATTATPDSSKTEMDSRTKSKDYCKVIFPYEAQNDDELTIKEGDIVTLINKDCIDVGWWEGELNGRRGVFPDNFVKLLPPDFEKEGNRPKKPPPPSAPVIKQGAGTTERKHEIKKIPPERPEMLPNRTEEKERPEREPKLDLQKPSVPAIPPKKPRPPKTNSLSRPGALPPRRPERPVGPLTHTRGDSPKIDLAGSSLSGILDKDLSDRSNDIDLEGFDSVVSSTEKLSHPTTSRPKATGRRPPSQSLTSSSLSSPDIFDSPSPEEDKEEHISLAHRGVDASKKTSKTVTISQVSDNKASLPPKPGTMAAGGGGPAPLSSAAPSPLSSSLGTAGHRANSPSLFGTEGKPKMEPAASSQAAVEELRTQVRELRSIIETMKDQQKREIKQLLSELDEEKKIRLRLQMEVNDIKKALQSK
UniProt Q14258: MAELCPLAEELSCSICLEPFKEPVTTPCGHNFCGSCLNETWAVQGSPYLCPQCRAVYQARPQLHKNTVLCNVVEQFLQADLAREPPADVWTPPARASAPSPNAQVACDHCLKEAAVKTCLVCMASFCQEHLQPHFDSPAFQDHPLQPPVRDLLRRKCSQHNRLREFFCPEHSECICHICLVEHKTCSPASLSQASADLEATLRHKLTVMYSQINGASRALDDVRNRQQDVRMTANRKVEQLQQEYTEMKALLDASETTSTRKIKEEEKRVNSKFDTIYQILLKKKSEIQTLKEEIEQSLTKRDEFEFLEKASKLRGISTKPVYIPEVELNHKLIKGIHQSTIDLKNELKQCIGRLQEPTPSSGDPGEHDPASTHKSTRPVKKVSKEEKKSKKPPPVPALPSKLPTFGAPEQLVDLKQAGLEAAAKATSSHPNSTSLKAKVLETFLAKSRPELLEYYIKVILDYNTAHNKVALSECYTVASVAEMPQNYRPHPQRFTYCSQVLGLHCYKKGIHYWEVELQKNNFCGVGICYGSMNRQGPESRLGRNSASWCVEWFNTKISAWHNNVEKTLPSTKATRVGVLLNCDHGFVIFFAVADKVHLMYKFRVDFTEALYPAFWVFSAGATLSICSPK

No constants are given. Whether binding was seen depends on the method and setting. In cells and extracts the contact can be indirect. Some entries that bind do so weakly or less than the wild type. For some assays here: Sequences can lack the tags named with a protein.

Assay [1] addresses T1, Flag-tagged RIG-I (UniProt O95786).
T1 sequence: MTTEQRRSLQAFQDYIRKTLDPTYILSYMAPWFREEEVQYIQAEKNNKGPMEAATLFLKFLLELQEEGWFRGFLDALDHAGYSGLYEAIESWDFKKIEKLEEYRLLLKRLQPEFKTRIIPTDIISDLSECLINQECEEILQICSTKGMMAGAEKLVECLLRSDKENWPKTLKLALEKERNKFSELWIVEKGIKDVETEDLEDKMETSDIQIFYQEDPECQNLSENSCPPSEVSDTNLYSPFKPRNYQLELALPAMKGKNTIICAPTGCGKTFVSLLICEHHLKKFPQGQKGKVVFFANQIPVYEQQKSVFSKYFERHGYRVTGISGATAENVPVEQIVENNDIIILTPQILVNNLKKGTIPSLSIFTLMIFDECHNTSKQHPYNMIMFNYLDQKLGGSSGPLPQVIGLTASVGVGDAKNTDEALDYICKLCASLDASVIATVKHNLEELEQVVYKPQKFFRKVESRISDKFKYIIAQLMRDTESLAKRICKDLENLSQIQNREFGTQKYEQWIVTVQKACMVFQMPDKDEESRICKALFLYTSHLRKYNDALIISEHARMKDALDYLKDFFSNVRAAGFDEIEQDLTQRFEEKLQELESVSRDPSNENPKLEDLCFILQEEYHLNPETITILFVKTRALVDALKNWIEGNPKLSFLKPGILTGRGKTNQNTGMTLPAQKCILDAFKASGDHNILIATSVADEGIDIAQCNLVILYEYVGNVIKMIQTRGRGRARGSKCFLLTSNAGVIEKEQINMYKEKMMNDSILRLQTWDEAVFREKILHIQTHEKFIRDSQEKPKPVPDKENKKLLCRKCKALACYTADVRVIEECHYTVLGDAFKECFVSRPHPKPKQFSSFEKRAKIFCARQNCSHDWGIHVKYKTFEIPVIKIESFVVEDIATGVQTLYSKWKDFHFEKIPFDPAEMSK
Kind of assay: co-IP; HEK-293T transfected with one tagged protein, the partner endogenous; Western blot; Fig 9D cells treated with DMSO or Baf-A1 for 12 h before harvest.

Assay [2] deals with SH3 domain-containing kinase-binding protein 1 (SH3KBP1), endogenous in HEK-293T (human (endogenous in HEK-293T)) (UniProt Q96B97). Described as above.

For the substance “SH3 domain-containing kinase-binding protein 1 (SH3KBP1), endogenous in HEK-293T (from UniProt Q96B97 1-665)”, in assay [1], the binding result is “no binding”.

With “HA-tagged TRIM25, full length (from UniProt Q14258 1-630)”, the binding entry in assay [2] is listed as “binds”.
